In patent publication US20240092935A1:

How the values were obtained:
[1] = target: Bovine submaxillary mucin (BSM) (bovine); assay: Western blot with BaGs6 ascites
[2] = target: Asialo-BSM (desialylated bovine submaxillary mucin) (bovine); assay: Western blot with BaGs6 ascites
[3] = target: Bovine submaxillary mucin (BSM) (bovine); assay: fluorescence microscopy of BSM beads
[4] = target: Asialo-BSM (desialylated bovine submaxillary mucin) (bovine); assay: flow cytometry inhibition assay on LSC cells, soluble Asialo-BSM as inhibitor
[5] = target: Asialo-BSM (desialylated bovine submaxillary mucin) (bovine); assay: fluorescence microscopy of Asialo-BSM beads

Measured: binding

B1: BaGs6, murine IgM anti-Tn monoclonal antibody from mouse ascites (antibody, V domains shown)
VH: DTMLQQSDAELVKPGASVKMSCKASGYTFTDHAIHWVKQKPEQGLEWIGYVSPGNGDIKYNEKFKGKATLSADKSSSTAYMQLNSLTSEDSAVYFCKRSYGSFDYWGQGTTLTVSS
VL: QIVLTQSPAIMSSSPGEKVALSCSASSSVSYVYWYQQKPGSSPKPWIYRTSNLASGVPARFSGSGSGTSYSLTISSMEAEDAATYYCQQYHSYPFTFGSGTKLEIKR
binds: all assays above

No constants are given. Whether binding was seen depends on the method and setting. A result given as binding can be weak or reduced; the word gives no strength.
